The target in assay [1] is pUL37 tagged with enhanced green fluorescent protein (pUL37-EGFP) (herpes simplex virus type 1 (HSV1), strain 17+) (UniProt P10221). In words: affinity purification with mass spectrometry; pUL37-EGFP isolated with anti-GFP antibodies on magnetic beads from cytoplasmic lysates of HSV1-infected primary human fibroblasts at 8 and 20 HPI; EGFP-only virus as control (20 HPI); 20 mM HEPES-KOH pH 7.4, 0.11 M potassium acetate, 250 mM NaCl, 0.5% NP-40, 0.1% Tween 20; TMT quantification, two replicates; enrichment of >=2-fold over the control counted as specific.

By UniProt entry, the sequences of proteins in these tests, tags left out. Residues count along the entry.
UniProt P10221: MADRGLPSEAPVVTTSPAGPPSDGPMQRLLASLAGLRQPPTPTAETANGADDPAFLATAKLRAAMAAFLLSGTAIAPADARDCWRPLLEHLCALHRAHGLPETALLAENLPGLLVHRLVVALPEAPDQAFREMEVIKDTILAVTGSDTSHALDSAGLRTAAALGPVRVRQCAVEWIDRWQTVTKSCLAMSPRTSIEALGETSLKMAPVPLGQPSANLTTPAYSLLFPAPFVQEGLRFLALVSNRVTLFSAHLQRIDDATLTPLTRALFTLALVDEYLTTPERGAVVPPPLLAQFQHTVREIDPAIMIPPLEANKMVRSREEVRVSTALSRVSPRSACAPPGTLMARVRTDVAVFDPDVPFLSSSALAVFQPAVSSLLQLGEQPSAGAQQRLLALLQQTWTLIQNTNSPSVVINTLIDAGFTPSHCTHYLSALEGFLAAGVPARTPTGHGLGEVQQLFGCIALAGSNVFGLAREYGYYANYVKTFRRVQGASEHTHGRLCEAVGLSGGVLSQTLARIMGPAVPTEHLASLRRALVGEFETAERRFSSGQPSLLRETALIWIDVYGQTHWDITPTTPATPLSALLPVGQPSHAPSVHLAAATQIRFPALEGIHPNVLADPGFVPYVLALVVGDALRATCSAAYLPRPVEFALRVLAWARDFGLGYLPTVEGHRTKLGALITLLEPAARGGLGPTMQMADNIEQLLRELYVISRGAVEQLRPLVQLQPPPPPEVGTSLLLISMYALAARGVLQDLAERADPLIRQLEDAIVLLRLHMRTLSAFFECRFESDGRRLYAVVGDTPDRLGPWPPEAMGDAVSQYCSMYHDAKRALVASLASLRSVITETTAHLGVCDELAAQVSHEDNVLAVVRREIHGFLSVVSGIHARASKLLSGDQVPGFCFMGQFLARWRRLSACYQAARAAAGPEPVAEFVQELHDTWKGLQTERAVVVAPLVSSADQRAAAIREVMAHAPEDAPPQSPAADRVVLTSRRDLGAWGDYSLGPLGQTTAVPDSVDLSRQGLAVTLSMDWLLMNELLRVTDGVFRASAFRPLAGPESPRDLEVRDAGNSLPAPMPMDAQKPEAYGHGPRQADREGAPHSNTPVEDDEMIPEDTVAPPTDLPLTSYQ
UniProt P04488, residues 21-550: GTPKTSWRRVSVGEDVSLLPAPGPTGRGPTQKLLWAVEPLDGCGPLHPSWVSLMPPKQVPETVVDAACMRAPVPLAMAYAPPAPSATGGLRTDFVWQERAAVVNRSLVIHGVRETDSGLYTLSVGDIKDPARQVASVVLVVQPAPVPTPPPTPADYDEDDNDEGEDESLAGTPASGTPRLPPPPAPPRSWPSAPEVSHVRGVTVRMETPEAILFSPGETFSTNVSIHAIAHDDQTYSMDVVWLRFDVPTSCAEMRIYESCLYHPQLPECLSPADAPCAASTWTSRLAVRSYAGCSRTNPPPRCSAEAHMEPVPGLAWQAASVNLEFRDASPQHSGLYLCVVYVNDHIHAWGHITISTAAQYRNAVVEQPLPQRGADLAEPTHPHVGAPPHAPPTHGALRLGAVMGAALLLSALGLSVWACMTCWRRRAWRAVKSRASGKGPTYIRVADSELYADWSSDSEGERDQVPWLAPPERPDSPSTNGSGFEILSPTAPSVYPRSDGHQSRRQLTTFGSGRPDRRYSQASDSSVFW

Assay [2] shares this target. The description is as above. This is another data set of the same source.

Where two headings read alike, the source gives them in different places. No constants are given. Whether binding was seen depends on the method and setting. Binding seen in cells or lysates may run through a third protein. These calls come from enrichment with a bait or labelling near it, and not all partners need be listed.

Turning to “pUS8 (glycoprotein E, gE) (from UniProt P04488 21-550)”, the binding entry in assay [1] is given as “binds”.

B1: pUS10 (protein, UniProt P06486 1-312)
chain: MIKRRGNVEIRVYYESVRTLRSRSHLKPSDRQQSPGHRVFPGSPGFRDHPENLGNPEYRELPETPGYRVTPGIHDNPGLPGSPGLPGSPGLPGSPGPHAPPANHVRLAGLYSPGKYAPLASPDPFSPQHGAYARARVGIHTAVRVPPTGSPTHTHLRQDPGDEPTSDDSGLYPLDARALAHLVMLPADHRAFFRTVVEVSRMCAANVRDPPPPATGAMLGRHARLVHTQWLRANQETSPLWPWRTAAINFITTMAPRVQTHRHMHDLLMACAFWCCLTHASTCSYAGLYSTHCLHLFGAFGCGDPALTPPLC
For B1, in assay [2], the binding result was “binds”.

The values are drawn from paper PMC6594648.
